No constants are given. Whether binding was seen depends on the method and setting. Binding seen in cells or lysates may run through a third protein. Some results given as binding are weak or reduced against the parent protein; the word gives no strength.
Target: T1, Never in mitosis gene A (NIMA)-related kinase-8 (human (endogenous in MDA-MB-231)) (UniProt Q86SG6)
T1 sequence: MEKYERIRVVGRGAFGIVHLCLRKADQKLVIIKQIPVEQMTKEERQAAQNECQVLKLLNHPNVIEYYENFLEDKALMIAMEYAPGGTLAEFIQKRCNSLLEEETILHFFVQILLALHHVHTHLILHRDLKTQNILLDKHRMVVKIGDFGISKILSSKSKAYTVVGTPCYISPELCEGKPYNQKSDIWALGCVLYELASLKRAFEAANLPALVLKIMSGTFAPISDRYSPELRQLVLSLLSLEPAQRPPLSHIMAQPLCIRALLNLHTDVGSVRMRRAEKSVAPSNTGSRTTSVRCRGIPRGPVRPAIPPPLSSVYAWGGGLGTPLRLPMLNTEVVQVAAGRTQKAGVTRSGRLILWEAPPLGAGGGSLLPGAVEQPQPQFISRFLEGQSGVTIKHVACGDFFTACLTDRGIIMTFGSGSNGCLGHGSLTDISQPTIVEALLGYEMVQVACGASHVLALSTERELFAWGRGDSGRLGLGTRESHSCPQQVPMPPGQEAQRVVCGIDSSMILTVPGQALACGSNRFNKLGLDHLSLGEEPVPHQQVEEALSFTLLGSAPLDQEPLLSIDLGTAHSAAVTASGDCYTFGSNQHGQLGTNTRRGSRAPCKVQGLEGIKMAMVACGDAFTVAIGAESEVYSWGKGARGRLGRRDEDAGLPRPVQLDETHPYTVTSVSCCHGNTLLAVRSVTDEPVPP
Assay: co-IP; MDA-MB-231 lysate (immunoprecipitation kit, Abcam; lysis buffer with protease inhibitor) treated with NEK8 antibody overnight at 4 °C, protein A/G sepharose 1 h, washed, eluted; β-catenin detected by western blot

The chains behind the UniProt entries cited, without tags or fusion partners.
UniProt P35222: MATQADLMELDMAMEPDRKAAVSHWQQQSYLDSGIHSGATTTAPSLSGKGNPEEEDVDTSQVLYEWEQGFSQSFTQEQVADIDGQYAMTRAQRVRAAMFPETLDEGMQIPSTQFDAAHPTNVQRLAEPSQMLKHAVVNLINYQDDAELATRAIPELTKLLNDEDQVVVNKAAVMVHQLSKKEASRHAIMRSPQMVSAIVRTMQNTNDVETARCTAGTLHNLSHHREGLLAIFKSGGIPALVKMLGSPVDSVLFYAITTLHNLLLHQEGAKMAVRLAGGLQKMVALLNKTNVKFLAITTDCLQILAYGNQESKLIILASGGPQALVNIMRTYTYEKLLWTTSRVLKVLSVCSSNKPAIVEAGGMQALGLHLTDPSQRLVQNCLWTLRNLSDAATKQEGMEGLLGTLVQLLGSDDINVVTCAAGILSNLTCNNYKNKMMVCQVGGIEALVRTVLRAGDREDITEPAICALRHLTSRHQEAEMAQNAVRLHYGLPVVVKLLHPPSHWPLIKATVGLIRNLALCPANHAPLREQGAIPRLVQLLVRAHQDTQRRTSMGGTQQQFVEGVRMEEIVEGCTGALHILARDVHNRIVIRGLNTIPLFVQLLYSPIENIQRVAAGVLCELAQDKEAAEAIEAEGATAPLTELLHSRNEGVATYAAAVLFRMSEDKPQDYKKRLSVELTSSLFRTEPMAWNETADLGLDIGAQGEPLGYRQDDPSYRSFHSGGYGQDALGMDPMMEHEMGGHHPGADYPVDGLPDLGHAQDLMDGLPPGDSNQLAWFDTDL

- binding: binds
Substance: β-catenin (from UniProt P35222 1-781)

Source: article PMC10133229
